Primary screen of a compound library

Chains of the proteins cited; added tags and fusions are not shown.
UniProt E9BF75, entry or part of it: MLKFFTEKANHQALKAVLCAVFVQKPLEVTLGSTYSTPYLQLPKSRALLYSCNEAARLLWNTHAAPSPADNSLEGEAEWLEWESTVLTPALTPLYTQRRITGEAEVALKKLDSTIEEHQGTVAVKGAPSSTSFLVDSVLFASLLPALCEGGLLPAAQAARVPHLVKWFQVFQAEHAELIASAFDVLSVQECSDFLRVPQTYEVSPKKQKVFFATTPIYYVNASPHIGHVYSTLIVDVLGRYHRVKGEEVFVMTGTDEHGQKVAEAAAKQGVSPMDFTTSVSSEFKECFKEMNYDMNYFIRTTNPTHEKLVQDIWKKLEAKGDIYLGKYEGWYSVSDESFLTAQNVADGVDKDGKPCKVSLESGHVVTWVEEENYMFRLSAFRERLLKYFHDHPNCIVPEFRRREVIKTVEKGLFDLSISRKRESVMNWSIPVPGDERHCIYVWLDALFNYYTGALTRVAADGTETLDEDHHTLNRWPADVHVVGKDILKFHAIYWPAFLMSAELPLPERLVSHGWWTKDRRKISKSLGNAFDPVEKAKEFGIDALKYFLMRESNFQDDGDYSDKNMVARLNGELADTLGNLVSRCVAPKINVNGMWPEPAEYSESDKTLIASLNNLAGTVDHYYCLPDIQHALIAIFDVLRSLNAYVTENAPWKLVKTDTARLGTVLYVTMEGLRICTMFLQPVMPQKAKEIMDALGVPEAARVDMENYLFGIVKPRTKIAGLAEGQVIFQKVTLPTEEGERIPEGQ

Data taken from ChEMBL document CHEMBL3988442, “University of Dundee, Small-Polar-MMV Screening Library” (2021).

All values are in %.
The controls that fix the scale are not given in the record; negative values are as filed.
This is an unselected part of the compounds tested.

LdMetRS: 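Primary screen of methionyl-tRNA synthetase; the read-out is not stated. Target: Methionyl-tRNA synthetase (putative), Leishmania donovani (UniProt E9BF75). The test concentration is not given. Values are per cent inhibition. Of about 68,000 compounds tested this way, about 24 (0.035%) reached 50% or more in at least one test.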
Mtb heat-shock: 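Assay on Mycobacterium tuberculosis, filed only as a heat shock assay from Cornell; the read-out is not stated. The concentration is filed as 10 mM, unlikely as a test dose, so the dose is not known. Direction is inferred from retests: higher values go with stronger inhibition. Size under these conditions: about 69,000 compounds, about 930 of them at 50% or above in at least one test.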

Result for COC(=O)N1CCCC(NC(=O)NCc2ccc(C)nc2)C1 (stereo unspecified) was LdMetRS: 14.34%; Mtb heat-shock: -14.15%. Cc1nn(C)c(Cl)c1C1CCCN1Cc1ccccn1 (stereo unspecified) gave LdMetRS: 21.65%; Mtb heat-shock: -3.539%. For Cc1ccc(C(CNCc2c[nH]nc2C)N(C)C)cc1 (stereo unspecified) the result was LdMetRS: 6.522%. Result for CCc1ncc2c(n1)CN(C(=O)CNC(=O)C(C)C)C2 was LdMetRS: 4.02%; Mtb heat-shock: -9.799%. O=S(=O)(NCC1(O)CCOc2ccccc21)c1cccs1 (stereo unspecified) read LdMetRS: 5.419%; Mtb heat-shock: 5.761%. For CCc1nsc(N2CCn3c(nnc3C(F)(F)F)C2)n1 the result was LdMetRS: 15.94%; Mtb heat-shock: 15.05%.

CCc1noc(CN2CCN(C(=O)c3ccccc3F)CC2)n1 read LdMetRS: 7.778%; Mtb heat-shock: -16.3%. COCCNC(=O)CN1CCN(c2nc(C)cs2)C(C)C1 (stereo unspecified) gave LdMetRS: 11.75%; Mtb heat-shock: -10.24%. With COc1ccc2c(=O)n(CC3CCCN(C)C3)ccc2c1OC (stereo unspecified) the screen gave Mtb heat-shock: -15.05%. With Cc1cnc(N2CCOC3(CCCN(CC(=O)N(C)C)C3)C2)nc1 (stereo unspecified) the screen gave LdMetRS: 10.8%. With O=C(C1CC=CC1)N1CC[C@@H](O)[C@H]1Cc1cccnc1 the screen gave LdMetRS: 15.5%; Mtb heat-shock: 12.03%. CC(NC(=O)NCCCn1cncn1)c1ccccc1Cl (stereo unspecified) gave LdMetRS: 12.59%; Mtb heat-shock: 6.185%.

Result for CN(CCCc1ccccc1)C(=O)CCc1nc(-c2nnc[nH]2)no1 was LdMetRS: 0.7371%; Mtb heat-shock: -0.4093%. With COc1ccc(OCCN2CCC(N3CCNC3=O)CC2)cc1 the screen gave LdMetRS: -4.127%; Mtb heat-shock: 47.29%. Result for [H][C@@]12C[C@@H](C)O[C@]1([H])CN(C(=O)C1=CCCC1)C2 was Mtb heat-shock: 12.45%. COc1ccc(C(CNS(=O)(=O)c2cn(C)nc2C)N2CCCC2)cc1 (stereo unspecified) gave LdMetRS: 1.246%. CCc1noc(C)c1C(=O)N(C)Cc1ncc(C)c(OC)c1C read LdMetRS: 20.83%; Mtb heat-shock: -16.35%. With O=c1cc(N2CCc3ccccc3C2)cnn1CCC1CCOC1 (stereo unspecified) the screen gave LdMetRS: 18.53%; Mtb heat-shock: 16.66%.

Result for CC(C)(C)c1n[nH]c(C2CN(Cc3ncc[nH]3)CCO2)n1 (stereo unspecified) was LdMetRS: 12.15%; Mtb heat-shock: 6.133%. For O=C(O)c1ccn(-c2ccccc2NC(=O)c2ccccc2Cl)n1 the result was LdMetRS: 2.542%; Mtb heat-shock: 0.1409%. CC(C)c1nccc(CN(C)Cc2cccc(-n3cccn3)c2)n1 gave LdMetRS: 13.97%; Mtb heat-shock: 23.39%. With O=C(O)C(F)(F)F.[H][C@]12CCCC(N(C)Cc3cccs3)[C@@]1([H])CN(C(=O)c1cnoc1C)C2 (stereo partly specified) the screen gave Mtb heat-shock: -21.38%. With Cc1ccc(C)c(OCCC(=O)N2CCCN(CC(N)=O)CC2)c1 the screen gave LdMetRS: 22.82%; Mtb heat-shock: -12.88%. For COCC1CN(C(=O)c2ccnnc2)Cc2ncnn2C1 (stereo unspecified) the result was LdMetRS: 5.376%; Mtb heat-shock: -8.765%.

Result for CN(Cc1c(F)cccc1Cl)C(=O)c1cnn(CCN2CCOCC2)c1 was LdMetRS: 13.4%; Mtb heat-shock: -11.19%. With COCCN1CCC2(CC1)CCN(Cc1ccccn1)CC2.O=C(O)C(F)(F)F.O=C(O)C(F)(F)F the screen gave Mtb heat-shock: -7.232%. For Cc1noc(C)c1C(=O)N[C@@H]1CC[C@@H](Oc2ccccc2)[C@@H]1O the result was LdMetRS: 11.05%; Mtb heat-shock: -3.976%. For [H][C@]12CN(Cc3cc(C)no3)CCN1C[C@H](c1ccccc1)[C@H]2C(=O)NC the result was Mtb heat-shock: 24.26%. Result for Cn1cc(C(=O)N2CCN(Cc3ccsc3)CC2)cn1 was LdMetRS: 8.743%; Mtb heat-shock: -13.81%. For CCN(CC(=O)N(C)C)C(=O)c1nc(C)n(-c2ccccc2Cl)n1 the result was LdMetRS: 8.355%; Mtb heat-shock: -2.212%.

Result for O=S(=O)(Nc1cn[nH]c1)c1ccc(F)c(Br)c1 was LdMetRS: 15.75%; Mtb heat-shock: -14.61%. With Cc1cc(=O)n(C)cc1NC(=O)Cc1cccc(Cl)c1 the screen gave LdMetRS: 15.86%; Mtb heat-shock: 7.91%. With COCCN1C2(CCN(C(=O)c3cccs3)C2)c2ccccc2S1(=O)=O (stereo unspecified) the screen gave LdMetRS: 18.4%; Mtb heat-shock: -7.149%. CCCNC(=O)N1CCCC2(CCC(=O)N(CCc3c[nH]cn3)C2)C1 (stereo unspecified) read LdMetRS: 4.301%; Mtb heat-shock: -23.3%. O=C(O)C(F)(F)F.[H][C@]12CC[C@@]3(N=C(C)N(CC(C)C)C3=O)[C@@]1([H])CNC2 read Mtb heat-shock: -9.466%. With Cc1cnc(CN(C)C2CCCN(c3cccnn3)C2)cn1 (stereo unspecified) the screen gave LdMetRS: -0.5634%; Mtb heat-shock: -24.56%.

Cc1ccc(CN(CCCN2CCOCC2)Cc2cncn2C)o1 read LdMetRS: 10.32%.